Values from PubChem BioAssay AID652259 (Drosophila RNAi Screening Center, 2013).
Assay: 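Identify new Wingless signalling regulators in fly cells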 (primary screen). System: Drosophila clone 8 imaginal disc epithelial cells. Reagent: long dsRNA against Drosophila genes. Treatment: pathway stimulated by co-transfected Wingless expression plasmid. Measured: 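Firefly luciferase from a tcf-site Wingless reporter, measured alongside co-transfected Renilla luciferase that tracks transfection; pathway stimulated by a Wingless plasmid; the firefly-to-Renilla ratio is not deposited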. Scale: firefly reporter light: higher = more Wg reporter light, before normalisation; Renilla control light: higher = more transfected or surviving cells. Active means: 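a knock-down is a candidate when at least two out of four statistical tests show it departing from its plate mean; one test alone signals a weak candidate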. Meaning of the calls: active = candidate regulator (raises or lowers reporter); inactive = not a candidate.
The screen tested about 22,000 reagents; shown is an unselected part of those that have a named target and a result. Over the whole deposit, 233 (1.1%) got an active call. 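Light values are raw, unnormalised plate reads; the ratio scores behind the reporter calls were not deposited.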 Names joined by + are all predicted targets of the reagent. Not stated in the record: the amount of reagent, the time to read-out, the dose of the treatment.

gene	dsRNA	firefly reporter light, replicate 1	firefly reporter light, replicate 2	Renilla control light, replicate 1	Renilla control light, replicate 2	call
Mekk1	DRSC16302	3764	8195	1968	1222	inactive
Mekk1	DRSC16303	21072		2885		inactive
CG17217	DRSC02592	3635	6838	1398	3114	inactive
CG33914	DRSC05033	17693		9159		inactive
CG33914	DRSC05034	23192		11515		inactive
Tengl1 (Testis EndoG-Like 1)	DRSC00481	1497	5660	816	2423	inactive
tbc (trabuco)	DRSC20540	18234		6432		inactive
gus (gustavus)	DRSC04885	19494		7532		inactive
gus (gustavus)	DRSC04886	3162	5920	395	2026	inactive
Cyp6d4 (Cytochrome P450 6d4)	DRSC16633	3147	5232	1794	2354	inactive
CG15909	DRSC04977	3357	6000	530	1501	inactive
Aatf (Apoptosis antagonizing transcription factor)	DRSC02131	1786	5352	985	3122	inactive
pdgy (pudgy)	DRSC19064	4566		1424		inactive
pdgy (pudgy)	DRSC19341	3165	9181	1308	4016	inactive
CG34054	DRSC05277	27504		22781		inactive
CG43193 (retired record)	DRSC20426	3213		1993		inactive
U2af50 (U2 small nuclear riboprotein auxiliary factor 50)	DRSC20297	2233	8048	681	2008	inactive
U2af50 (U2 small nuclear riboprotein auxiliary factor 50)	DRSC22867	6.11e5	5.65e5	1.79e5	2.00e5	inactive
CG31459	DRSC13380	3597		1632		inactive
CG9876	DRSC04586	3408	6481	813	2545	inactive
Iru (Iruka)	DRSC14457	6291		2359		inactive
CG34434	DRSC18134	15573		8170		inactive
CG3386	DRSC08566	6273		3536		inactive
CG40298	DRSC22274	5.59e5	5.55e5	2.24e5	2.06e5	inactive
Rbcn-3A (Rabconnectin-3A)	DRSC18314	25412		12465		inactive
CG12520	DRSC09892	3892		1840		inactive
CR18217 (pseudo)	DRSC21506	9.18e5	8.46e5	3.79e5	3.59e5	inactive
CG4678	DRSC19911	23298		11909		inactive
CG4678	DRSC19912	13485		8120		inactive
GluRIB (Glutamate receptor IB)	DRSC10258	7364		4976		inactive
GluRIB (Glutamate receptor IB)	DRSC11177	6193		3307		inactive
CG13653	DRSC14653	15908		14699		inactive
CG15020	DRSC08474	1431	6608	1293	2864	inactive
CG33299	DRSC01085	17238		7734		inactive
Prx4 (Peroxiredoxin 4)	DRSC08668	6311		2736		inactive
M7BP (Myosin-7a binding protein)	DRSC05053	16197		6708		inactive
M7BP (Myosin-7a binding protein)	DRSC05054	20141		8323		inactive
M7BP (Myosin-7a binding protein)	DRSC05932	8838		1524		inactive
M7BP (Myosin-7a binding protein)	DRSC06701	4048	6915	1012	2235	inactive
M7BP (Myosin-7a binding protein)	DRSC06816	4632	8265	1171	3063	inactive
cnn (centrosomin)	DRSC05422	20089		15163		inactive
cnn (centrosomin)	DRSC07596	3313		1945		inactive
CG1441	DRSC06448	15665		2229		inactive
CG1239	DRSC12204	4594		1761		inactive
mi (minus)	DRSC04498	3725		1734		inactive
flip (flippy)	DRSC12326	17539		6025		inactive
OtopLa (Otopetrin-like a)	DRSC17787	26470	7.37e5	9013	1.84e5	inactive
OtopLa (Otopetrin-like a)	DRSC18133	26297		12184		inactive
GCC185 (GRIP and coiled-coil domain containing 185 kDa)	DRSC15493	17684		5013		inactive
CG7213	DRSC10787	2320	8785	1511	3584	inactive
obst-B (obstructor-B)	DRSC01987	10130		3021		inactive
CG11275	DRSC04095	3509	9712	711	3746	inactive
alc (alicorn)	DRSC07062	3600	9619	970	4700	inactive
alc (alicorn)	DRSC21464	7.33e5	7.50e5	4.45e5	3.44e5	inactive
PAN3 (Poly(A) specific ribonuclease subunit PAN3)	DRSC08190	3841		1248		inactive
CG11726	DRSC09858	8693		3472		inactive
ctp (cut up)	DRSC18758	3091	10880	945	1249	inactive
fs(1)K10 (female sterile (1) K10)	DRSC18775	1720	7581	853	1973	inactive
Or19b + Or19a	DRSC22604	6.50e5	6.26e5	2.33e5	1.26e5	inactive
Taf10b (TBP-associated factor 10b)	DRSC00792	3005	6448	945	1686	inactive
Sec24AB (Secretory 24AB)	DRSC06478	11184		2557		inactive
hbs (hibris)	DRSC07627	8903		3688		inactive
Mst77F (Male-specific transcript 77F)	DRSC11871	15683		5970		inactive
CG32260	DRSC08084	2492		1712		inactive
Atg6 (Autophagy-related 6)	DRSC15798	2429	5341	1173	1861	inactive
Obp56g (Odorant-binding protein 56g)	DRSC06432	4572		1809		inactive
Mef2 (Myocyte enhancer factor 2)	DRSC07468	11308		2208		inactive
Rpp25 (Ribonuclease P/MRP subunit p25)	DRSC05002	2676	8149	681	3236	inactive
Ppt1 (Palmitoyl-protein thioesterase 1)	DRSC17806	16298		7309		inactive
Trpgamma (Transient receptor potential cation channel gamma)	DRSC03626	2818	9563	1368	4824	inactive
CG1394	DRSC19539	18164		5904		inactive
CG31867	DRSC03338	2282	3973	1147	1997	inactive
Alg-2 (Apoptosis-linked gene-2)	DRSC07799	4133		1884		inactive
